Measurements reported in PubChem BioAssay AID504791 (Drosophila RNAi Screening Center, 2011)
Purpose: 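Genes whose knock-down strengthens or weakens small-RNA reporter silencing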 (primary screen). System: Drosophila S2-derived reporter cells. Reagents: long dsRNA against Drosophila genes, about 150-250 ng dsRNA per well (siRNA assay); about 80-120 ng (miRNA assay). Duration: about 5 days (siRNA assay); about 4 days (miRNA assay). Challenge: copper sulfate induction of reporters: 25 µM (siRNA assay); 200 mM stated (miRNA assay), 1-2 days before reading. Read-out: 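Per-well ratio of Renilla over firefly light, expressed relative to that plate's average ratio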. Units: stable assay Renilla, run 1 in luminescence; stable assay firefly, run 1 in luminescence. Active means: 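a well was a first-pass pick when its plate-scaled ratio rose above 1.5 (siRNA assay) or 1.6 (miRNA assay), or dropped below 0.6; a gene counted only if two separate dsRNAs agreed on retest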.
The deposit covers about 23,000 reagents; below is a random part of those that have a named target and a result. Over the whole deposit, 199 (0.86%) were called active. 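Plate-scaled ratios behind the calls are not deposited; printed light signals are raw; many rows marked increased or decreased are still called inactive.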 Entries without a mark were called inactive. Names joined by + are all predicted targets of the reagent. Not stated in the record: the direction of the score.

Knock-down of Ugt303B1 [DRSC15141] resulted in: stable assay Renilla, run 1 = 5775; stable assay firefly, run 1 = 3.11e5.
With knock-down of CG30161 [DRSC22141], the screen gave stable assay Renilla, run 1 = 9244; stable assay firefly, run 1 = 4.86e5.
Depletion of Or88a [DRSC16770] resulted in: stable assay Renilla, run 1 = 7724; stable assay firefly, run 1 = 4.10e5.
After knock-down of Pop5 [DRSC10074], the record shows stable assay Renilla, run 1 = 7130; stable assay firefly, run 1 = 4.26e5.
For CG1360 [DRSC06406], the entry reads stable assay Renilla, run 1 = 6067; stable assay firefly, run 1 = 2.90e5.
For CG11608 [DRSC14334], the entry reads stable assay Renilla, run 1 = 6403; stable assay firefly, run 1 = 3.83e5.
With knock-down of CG3907 [DRSC04432], the record shows stable assay Renilla, run 1 = 6604; stable assay firefly, run 1 = 5.94e5.
After knock-down of Gyc89Db [DRSC15009], the record shows stable siRNA reporter change reporter ratio raised past the hit cutoff; stable assay Renilla, run 1 = 26614; stable assay firefly, run 1 = 5.48e5.
With knock-down of LManII [DRSC01986], the screen gave stable assay Renilla, run 1 = 9311; stable assay firefly, run 1 = 1.08e6.
With knock-down of w-cup [DRSC03048], the record shows stable assay Renilla, run 1 = 6094; stable assay firefly, run 1 = 3.65e5.
Depletion of CG14810 [DRSC17693] gave: stable assay Renilla, run 1 = 6779; stable assay firefly, run 1 = 3.32e5.
For CG14810 [DRSC17961], the values are stable assay Renilla, run 1 = 6440; stable assay firefly, run 1 = 3.96e5.
For CR18217 [DRSC21506], the values are stable assay Renilla, run 1 = 10709; stable assay firefly, run 1 = 5.87e5.
After knock-down of CG15322 [DRSC20680] the results were stable assay Renilla, run 1 = 4119; stable assay firefly, run 1 = 2.47e5.
Silencing of CG15322 [DRSC23023] came out at: stable assay Renilla, run 1 = 4655; stable assay firefly, run 1 = 3.15e5.
For Orcokinin [DRSC04202], the entry reads stable assay Renilla, run 1 = 6032; stable assay firefly, run 1 = 3.10e5.
Against Cpr76Bc [DRSC11062], the values are stable assay Renilla, run 1 = 7866; stable assay firefly, run 1 = 4.71e5.
For spri [DRSC17846], the values are stable assay Renilla, run 1 = 4228; stable assay firefly, run 1 = 4.00e5.
For spri [DRSC17984], the values are stable assay Renilla, run 1 = 6362; stable assay firefly, run 1 = 4.97e5.
After knock-down of spri [DRSC17985], the screen gave stable assay Renilla, run 1 = 6448; stable assay firefly, run 1 = 4.48e5.
Against spri [DRSC17986] the deposit lists stable assay Renilla, run 1 = 6403; stable assay firefly, run 1 = 4.53e5.
spri [DRSC17988] scored stable assay Renilla, run 1 = 6527; stable assay firefly, run 1 = 4.87e5.
spri [DRSC17989] gave stable assay Renilla, run 1 = 5308; stable assay firefly, run 1 = 4.32e5.
Against spri [DRSC22927], the values are stable assay Renilla, run 1 = 4744; stable assay firefly, run 1 = 3.83e5.
For Rad60 [DRSC15580], the entry reads stable assay Renilla, run 1 = 6327; stable assay firefly, run 1 = 3.77e5.
Silencing of CG8460 [DRSC03090] gave: stable assay Renilla, run 1 = 57122; stable assay firefly, run 1 = 3.02e5.
Knock-down of CG13293 [DRSC09967] came out at: stable assay Renilla, run 1 = 6718; stable assay firefly, run 1 = 3.93e5.
After knock-down of GatC + PolG2 [DRSC03312], the screen gave stable assay Renilla, run 1 = 7618; stable assay firefly, run 1 = 1.42e6.

4 entries from above, ordered by “stable assay firefly, run 1”, high to low:
spri [DRSC17989] — stable assay Renilla, run 1 = 5308; stable assay firefly, run 1 = 4.32e5
spri [DRSC22927] — stable assay Renilla, run 1 = 4744; stable assay firefly, run 1 = 3.83e5
Rad60 [DRSC15580] — stable assay Renilla, run 1 = 6327; stable assay firefly, run 1 = 3.77e5
CG8460 [DRSC03090] — stable assay Renilla, run 1 = 57122; stable assay firefly, run 1 = 3.02e5
